Assay [1] relates to Saccharomyces cerevisiae HF7c pdr5Δ. The experiment in a line: general growth inhibition of yeast HF7c pdr5Δ in -Leu -Trp medium, relative to DMSO; higher = stronger general growth inhibition. Particulars: 100 µM; 24 h.
Assay [2] has as its system human PEX3-PEX19 interaction (yeast two-hybrid). The experiment in a line: growth inhibition of yeast two-hybrid strain reporting HsPex3-HsPex19 interaction, relative to DMSO; higher = stronger inhibition of human Pex3-Pex19 interaction / growth. The settings on record: 100 µM; 24 h; 3-aminotriazole 10 mM.
The subject of assay [3] is T. brucei Pex3-Pex19 interaction (yeast two-hybrid). The experiment in a line: growth inhibition of yeast two-hybrid strain reporting TbPex3-TbPex19 interaction, relative to DMSO; higher = stronger inhibition of T. brucei Pex3-Pex19 interaction / growth. Particulars: 100 µM; 24 h.

SMILES strings stand for the structures. Some of the results follow. The data scatter; read single values as rough.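 Yeast growth was measured as optical density at 600 nm. Two-hybrid strains grew without histidine, so growth depended on Pex3–Pex19 binding. A compound was trypanosome-selective if it reduced growth of the trypanosome-pair strain by over 65% and of the human-pair strain by under 65%.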

Take `CC1(C)NC(=O)N(c2ccc([N+](=O)[O-])c(C(F)(F)F)c2)C1=O` [Nilutamide]: the general growth inhibition in assay [1] turned out to be 4.73%. The growth inhibition in assay [2] was -0.794%; in assay [3], 31.4%.
The matching figures for `CC(=O)NCCc1c[nH]c2ccc(O)cc12` [N-Acetyl-5-hydroxytryptamine]: 48.4%, 42.1% and 58.7%.
Consider `C[N+]1(C)CCC(OC(=O)C(c2ccccc2)c2ccccc2)CC1`, for which, in assay [1], the general growth inhibition turned out to be 50.6%. The growth inhibition in assay [2] worked out at 48.2%; in assay [3], 56.5%.
For `[Cl-].[Li+]` [Lithium Chloride] the same measures were 32.4%, 37.3% and 71.9%.
The matching figures for `CN1CCc2ccccc2Cc2[nH]c3ccccc3c2CC1`: 48.4%, 45% and 70.1%.
In assay [1], `N#CC(C#N)=C(N)/C(C#N)=C/c1cc(O)c(O)c(O)c1` [Tyrphostin 51] returned a general growth inhibition of 44.7%. The growth inhibition in assay [2] was 38.8%; in assay [3], 59.3%.
In turn, `Nc1ncnc2c1ncn2[C@@H]1O[C@H](COP(=O)(O)OP(=O)(O)OP(=O)(O)OP(=O)(O)OC[C@@H]2O[C@H](n3cnc4c(N)ncnc43)C(O)[C@@H]2O)[C@H](O)C1O` (stereo not given in full) [P1,P4-Di(adenosine-5')tetraphosphate triammonium] showed a general growth inhibition in assay [1] of 36.7%. Further, the results for the growth inhibition in assay [2] and in assay [3] were 32.4% and 53.9%, respectively.
For `CO[C@@]1(NC(=O)CSCC#N)C(=O)N2C(C(=O)O)=C(CSc3nnnn3C)CS[C@@H]21` [Cefmetazole sodium] the same measures were 44.3%, 45.9% and 65.1%.
The matching figures for `O=C1CCc2cc(OCCCCc3nnnn3C3CCCCC3)ccc2N1` [Cilostazol]: 25.7%, 21.7% and 50.9%.
The matching figures for `C=C1C[C@@]23CC[C@H]4[C@@](C)(CCC[C@@]4(C)C(=O)O)[C@@H]2CC[C@]1(O)C3` [Steviol]: 47.4%, 28.3% and 37.4%.

These data come from the supplement of paper PMC8326762, “A Small Molecule Inhibitor of Pex3–Pex19 Interaction Disrupts Glycosome Biogenesis and Causes Lethality in Trypanosoma brucei” (Frontiers in Cell and Developmental Biology, 2021).
